These results are taken from publication PMC11094094.

The chains behind the UniProt entries cited, without tags or fusion partners.
UniProt P29742: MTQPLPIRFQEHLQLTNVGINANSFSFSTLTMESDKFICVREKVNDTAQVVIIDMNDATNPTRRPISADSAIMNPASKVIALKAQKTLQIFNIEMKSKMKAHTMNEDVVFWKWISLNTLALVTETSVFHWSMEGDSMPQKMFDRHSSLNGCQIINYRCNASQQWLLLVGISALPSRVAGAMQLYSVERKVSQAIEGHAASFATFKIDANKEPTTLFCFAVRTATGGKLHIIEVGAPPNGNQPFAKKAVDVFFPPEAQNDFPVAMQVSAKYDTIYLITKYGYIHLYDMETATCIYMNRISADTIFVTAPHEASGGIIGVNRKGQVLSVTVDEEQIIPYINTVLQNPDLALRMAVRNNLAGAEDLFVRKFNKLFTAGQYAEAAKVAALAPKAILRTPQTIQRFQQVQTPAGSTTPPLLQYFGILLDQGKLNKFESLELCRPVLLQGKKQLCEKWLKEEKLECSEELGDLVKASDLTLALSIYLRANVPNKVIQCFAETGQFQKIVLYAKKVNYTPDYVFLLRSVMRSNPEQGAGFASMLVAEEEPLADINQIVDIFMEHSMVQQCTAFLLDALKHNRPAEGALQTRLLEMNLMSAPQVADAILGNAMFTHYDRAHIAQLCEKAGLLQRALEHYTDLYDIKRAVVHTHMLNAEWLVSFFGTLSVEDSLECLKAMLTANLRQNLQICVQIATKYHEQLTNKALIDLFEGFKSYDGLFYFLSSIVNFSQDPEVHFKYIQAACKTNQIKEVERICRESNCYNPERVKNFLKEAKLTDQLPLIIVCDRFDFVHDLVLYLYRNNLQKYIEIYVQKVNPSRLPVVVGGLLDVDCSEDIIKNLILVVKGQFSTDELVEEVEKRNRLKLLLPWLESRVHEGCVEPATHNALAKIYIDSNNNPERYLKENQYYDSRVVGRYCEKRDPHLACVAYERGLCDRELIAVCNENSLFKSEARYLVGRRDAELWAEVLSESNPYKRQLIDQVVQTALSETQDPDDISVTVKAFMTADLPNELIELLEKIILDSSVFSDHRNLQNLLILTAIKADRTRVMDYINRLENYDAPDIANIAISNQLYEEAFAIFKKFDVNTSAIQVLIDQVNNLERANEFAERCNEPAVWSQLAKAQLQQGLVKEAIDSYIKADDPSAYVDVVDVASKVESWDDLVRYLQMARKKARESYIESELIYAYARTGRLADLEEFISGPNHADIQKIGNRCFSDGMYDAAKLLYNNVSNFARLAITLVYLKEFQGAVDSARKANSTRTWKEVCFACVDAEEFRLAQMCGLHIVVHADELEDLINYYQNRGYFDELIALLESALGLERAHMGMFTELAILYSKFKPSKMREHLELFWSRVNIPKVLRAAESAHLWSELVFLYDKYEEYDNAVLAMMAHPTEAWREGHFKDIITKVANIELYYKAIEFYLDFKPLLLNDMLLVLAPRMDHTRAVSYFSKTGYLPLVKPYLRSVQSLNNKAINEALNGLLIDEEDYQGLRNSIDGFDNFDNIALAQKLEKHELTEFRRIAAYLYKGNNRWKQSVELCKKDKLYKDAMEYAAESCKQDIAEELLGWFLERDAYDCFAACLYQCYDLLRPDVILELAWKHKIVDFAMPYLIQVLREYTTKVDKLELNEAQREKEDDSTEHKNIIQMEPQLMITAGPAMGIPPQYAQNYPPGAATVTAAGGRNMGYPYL
UniProt P11147: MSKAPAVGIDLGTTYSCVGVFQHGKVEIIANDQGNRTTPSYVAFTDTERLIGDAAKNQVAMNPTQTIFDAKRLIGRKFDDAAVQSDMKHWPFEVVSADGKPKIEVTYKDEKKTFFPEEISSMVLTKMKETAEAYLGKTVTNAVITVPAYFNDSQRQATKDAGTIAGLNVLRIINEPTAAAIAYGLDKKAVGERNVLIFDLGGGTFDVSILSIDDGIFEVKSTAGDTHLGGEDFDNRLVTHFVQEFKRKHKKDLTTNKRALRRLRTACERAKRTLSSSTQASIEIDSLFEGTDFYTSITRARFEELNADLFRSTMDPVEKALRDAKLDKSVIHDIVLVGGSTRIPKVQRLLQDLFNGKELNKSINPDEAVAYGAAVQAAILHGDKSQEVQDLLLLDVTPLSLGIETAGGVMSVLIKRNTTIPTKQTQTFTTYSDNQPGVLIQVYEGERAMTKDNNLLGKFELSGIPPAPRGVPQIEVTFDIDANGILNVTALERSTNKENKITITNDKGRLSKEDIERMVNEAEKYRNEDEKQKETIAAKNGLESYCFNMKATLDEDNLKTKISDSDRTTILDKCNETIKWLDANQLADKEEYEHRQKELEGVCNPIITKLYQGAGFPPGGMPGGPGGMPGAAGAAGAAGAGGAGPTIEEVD

Like-named read-outs stand apart in the source and are kept apart here. Results are given in words; binding and its absence hold for the method and conditions named. In cells and extracts the contact can be indirect. These calls come from enrichment with a bait or labelling near it, and not all partners need be listed. Sequences can lack the tags named with a protein.

In experiment [1] the target is T1, Evi5 (Ecotropic viral integration site 5), 3xFlag-tagged, from the Evi5^FRT knock-in allele (Drosophila) (UniProt Q9VYY9).
T1 sequence: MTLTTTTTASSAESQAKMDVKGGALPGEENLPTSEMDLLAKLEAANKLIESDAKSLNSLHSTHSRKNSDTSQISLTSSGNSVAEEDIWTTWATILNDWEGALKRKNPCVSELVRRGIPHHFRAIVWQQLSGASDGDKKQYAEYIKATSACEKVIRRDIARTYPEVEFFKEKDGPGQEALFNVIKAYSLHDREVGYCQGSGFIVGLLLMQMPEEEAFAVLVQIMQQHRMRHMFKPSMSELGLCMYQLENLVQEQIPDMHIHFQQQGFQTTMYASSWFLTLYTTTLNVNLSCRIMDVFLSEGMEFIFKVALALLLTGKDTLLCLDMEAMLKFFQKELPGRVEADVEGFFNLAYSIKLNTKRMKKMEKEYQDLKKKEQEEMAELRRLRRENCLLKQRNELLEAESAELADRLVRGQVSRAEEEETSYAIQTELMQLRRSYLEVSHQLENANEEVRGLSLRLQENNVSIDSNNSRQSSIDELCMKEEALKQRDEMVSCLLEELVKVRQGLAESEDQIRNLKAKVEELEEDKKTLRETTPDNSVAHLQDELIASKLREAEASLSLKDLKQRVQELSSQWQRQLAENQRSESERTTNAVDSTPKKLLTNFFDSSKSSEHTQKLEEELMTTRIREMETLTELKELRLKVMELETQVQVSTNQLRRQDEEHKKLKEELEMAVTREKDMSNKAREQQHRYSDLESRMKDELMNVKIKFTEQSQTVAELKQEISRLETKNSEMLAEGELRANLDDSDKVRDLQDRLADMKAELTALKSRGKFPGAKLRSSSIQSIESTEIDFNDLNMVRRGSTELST
The experiment in a line: affinity purification with mass spectrometry; in vivo: whole Evi5^FRT L3 larvae (40-44 h), fixed with 0.2% formaldehyde, lysed; M2 Flag beads 4 h at 4 °C; eluate on SDS gel, MALDI-TOF; control wild-type flies without Flag-tagged protein; single sample.

Experiment [2] deals with T1, Evi5 (Ecotropic viral integration site 5), 3xFlag-tagged, from the Evi5^FRT knock-in allele (Drosophila). The experiment is described as above. This is another data set of the same source.
In experiment [3] the target is T2, Evi5-3xFlag expressed in S2 cells (pAFW-Evi5-3XFlag) (Drosophila) (UniProt Q9VYY9).
T2 sequence: T1 sequence
In words: affinity purification with mass spectrometry; ex vivo: S2 cells transfected with pAFW-Evi5-3XFlag, lysed (50 mM Tris-HCl pH 7.4, 150 mM NaCl, 1 mM EDTA, 0.1% NP-40); M2 Flag beads 4 h at 4 °C; MALDI-TOF; control Flag-tagged eGFP; single sample.

Turning to “Clathrin heavy chain (Chc) (from UniProt P29742 1-1678)”, the binding entry in experiment [1] is on record as “binds”.

With “Hsc70-4 (endosomal co-chaperone) (from UniProt P11147 1-651)”, the binding result in experiment [1] is “binds”.

B1: Ferritin heavy chain (Fer1HCH), endogenous in larvae (protein, UniProt Q7KRU8 20-205)
chain: DFKCSLAVPEITKDWVDMKDACIKGMRNQIQEEINASYQYLAMGAYFSRDTVNRPGFAEHFFKAAKEEREHGSKLVEYLSMRGQLTEGVSDLINVPTVAKQEWTDGAAALSDALDLEIKVTKSIRKLIQTCENKPYNHYHLVDYLTGVYLEEQLHGQRELAGKLTTLKKMMDTNGELGEFLFDKTL
With B1, in experiment [2], the binding entry is “binds”.

B2: Ferritin heavy chain (Fer1HCH), endogenous in S2 cells (protein, UniProt Q7KRU8 20-205)
chain: B1 chain
Regarding B2, in experiment [3], the binding entry is listed as “binds”.
